This note sets out measurements from PMC9902482.

This test addresses T1, full-length FLRT3 expressed on HEK293T cells (UniProt Q9NZU0).
T1 sequence: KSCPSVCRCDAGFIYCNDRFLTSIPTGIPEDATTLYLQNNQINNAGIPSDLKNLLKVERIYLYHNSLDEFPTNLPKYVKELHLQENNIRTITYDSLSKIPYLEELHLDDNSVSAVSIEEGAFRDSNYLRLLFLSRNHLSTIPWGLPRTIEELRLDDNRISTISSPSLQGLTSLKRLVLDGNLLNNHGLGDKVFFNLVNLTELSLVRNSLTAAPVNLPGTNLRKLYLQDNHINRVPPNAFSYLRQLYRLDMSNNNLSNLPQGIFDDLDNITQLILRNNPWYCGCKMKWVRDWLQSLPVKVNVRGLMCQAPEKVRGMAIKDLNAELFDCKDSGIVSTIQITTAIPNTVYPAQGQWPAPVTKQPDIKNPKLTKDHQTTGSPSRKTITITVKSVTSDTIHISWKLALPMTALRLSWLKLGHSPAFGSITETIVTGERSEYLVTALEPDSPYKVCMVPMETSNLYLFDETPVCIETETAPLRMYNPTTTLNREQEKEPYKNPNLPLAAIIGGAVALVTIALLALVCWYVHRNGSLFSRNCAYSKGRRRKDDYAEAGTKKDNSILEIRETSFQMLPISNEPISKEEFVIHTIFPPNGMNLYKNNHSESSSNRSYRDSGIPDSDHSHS
The experiment in a line: cell aggregation assay; two populations of HEK293T cells, each expressing one full-length protein (with GFP or dsRed), mixed 1:1 in DMEM with 10% FBS, 10 mM CaCl2, 10 mM MgCl2, with 5 µM sAB or HBS, 10 min at 27 °C, 120 rpm; aggregation index from images.

No constants are given. Whether binding was seen depends on the method and setting. Some entries that bind do so weakly or less than the wild type.

B1: full-length ADGRL3 expressed on HEK293T cells (receptor, UniProt Q9HAR2 20-1447)
chain: FSRAPIPMAVVRRELSCESYPIELRCPGTDVIMIESANYGRTDDKICDSDPAQMENIRCYLPDAYKIMSQRCNNRTQCAVVAGPDVFPDPCPGTYKYLEVQYECVPYKVEQKVFLCPGLLKGVYQSEHLFESDHQSGAWCKDPLQASDKIYYMPWTPYRTDTLTEYSSKDDFIAGRPTTTYKLPHRVDGTGFVVYDGALFFNKERTRNIVKFDLRTRIKSGEAIIANANYHDTSPYRWGGKSDIDLAVDENGLWVIYATEQNNGKIVISQLNPYTLRIEGTWDTAYDKRSASNAFMICGILYVVKSVYEDDDNEATGNKIDYIYNTDQSKDSLVDVPFPNSYQYIAAVDYNPRDNLLYVWNNYHVVKYSLDFGPLDSRSGQAHHGQVSYISPPIHLDSELERPSVKDISTTGPLGMGSTTTSTTLRTTTLSPGRSTTPSVSGRRNRSTSTPSPAVEVLDDMTTHLPSASSQIPALEESCEAVEAREIMWFKTRQGQIAKQPCPAGTIGVSTYLCLAPDGIWDPQGPDLSNCSSPWVNHITQKLKSGETAANIARELAEQTRNHLNAGDITYSVRAMDQLVGLLDVQLRNLTPGGKDSAARSLNKAMVETVNNLLQPQALNAWRDLTTSDQLRAATMLLHTVEESAFVLADNLLKTDIVRENTDNIKLEVARLSTEGNLEDLKFPENMGHGSTIQLSANTLKQNGRNGEIRVAFVLYNNLGPYLSTENASMKLGTEALSTNHSVIVNSPVITAAINKEFSNKVYLADPVVFTVKHIKQSEENFNPNCSFWSYSKRTMTGYWSTQGCRLLTTNKTHTTCSCNHLTNFAVLMAHVEVKHSDAVHDLLLDVITWVGILLSLVCLLICIFTFCFFRGLQSDRNTIHKNLCISLFVAELLFLIGINRTDQPIACAVFAALLHFFFLAAFTWMFLEGVQLYIMLVEVFESEHSRRKYFYLVGYGMPALIVAVSAAVDYRSYGTDKVCWLRLDTYFIWSFIGPATLIIMLNVIFLGIALYKMFHHTAILKPESGCLDNIKSWVIGAIALLCLLGLTWAFGLMYINESTVIMAYLFTIFNSLQGMFIFIFHCVLQKKVRKEYGKCLRTHCCSGKSTESSIGSGKTSGSRTPGRYSTGSQSRIRRMWNDTVRKQSESSFITGDINSSASLNREGLLNNARDTSVMDTLPLNGNHGNSYSIASGEYLSNCVQIIDRGYNHNETALEKKILKELTSNYIPSYLNNHERSSEQNRNLMNKLVNNLGSGREDDAIVLDDATSFNHEESLGLELIHEESDAPLLPPRVYSTENHQPHHYTRRRIPQDHSESFFPLLTNEHTEDLQSPHRDSLYTSMPTLAGVAATESVTTSTQTEPPPAKCGDAEDVYYKSMPNLGSRNHVHQLHTYYQLGRGSSDGFIVPPNKDGTPPEGSSKGPAHLVTSL
For B1, the binding entry was “binds”.
